# Literature values in patent US10610500B2, “Chemosensory receptor ligand-based therapies” (Anji Pharma (US) LLC, priority 2011, dated 2020).
# Conditions: phytonutrients in common plant foods
row,Compound,Taste quality
1,C=CCC(=NOS(=O)(=O)O)S[C@@H]1O[C@H](CO)[C@@H](O)[C@H](O)[C@H]1O (stereo in doubt) [Sinigrin],Bitter
2,C[S+]([O-])CCCN=C=S (centres unmarked) [3-Methyl-sulfinylpropyl isothiocyanate],Acrid mustard oils
3,C[S+]([O-])CCCCN=C=S (centres unmarked) [4-Methylsulfinyl butyl isothiocyanate],Acrid mustard oils
4,C=CCN=C=S [Allyl-isothiocyanate],Acrid mustard oils;
5,S=C=NCc1ccccc1 [Benzyl isothiocyanate],Acrid mustard oils;
6,O=c1c(-c2ccc(O)cc2)coc2cc(O[C@@H]3O[C@H](CO)[C@@H](O)[C@H](O)[C@H]3O)ccc12 [Daidzin],Astringent
7,O=C(O[C@@H]1Cc2c(O)cc(O)cc2O[C@@H]1c1ccc(O)c(O)c1)c1cc(O)c(O)c(O)c1 [Epicatechin gallate],Bitter and astringent
8,O=C(O[C@@H]1Cc2c(O)cc(O)cc2O[C@@H]1c1cc(O)c(O)c(O)c1)c1cc(O)c(O)c(O)c1 [Epigallocatechin gallate],Bitter with
9,Oc1cc(O)c2c(c1)O[C@H](c1cc(O)c(O)c(O)c1)[C@H](O)C2 [Epigallocatechin],Bitter with
10,O=c1c(-c2ccc(O)cc2)coc2cc(O)cc(O)c12 [Genistein],Bitter or astringent
11,O=c1c(-c2ccc(O)cc2)coc2cc(O[C@@H]3O[C@H](CO)[C@@H](O)[C@H](O)[C@H]3O)cc(O)c12 [Genistin],Astringent
12,O=S(=O)(O)ON=C(Cc1c[nH]c2ccccc12)S[C@@H]1O[C@H](CO)[C@@H](O)[C@H](O)[C@H]1O [Glucobrassicin],Bitter
13,"C=CC1CNC(=S)O1 (centres unmarked) [Goitrin, Goitrin 5-vinyl-2-oxazolidine thione]",Bitter
14,CC1(C)O[C@H]2CC(=O)OC[C@]23[C@H]2CC[C@@](C)([C@@H](O[C@@H]4O[C@H](CO)[C@@H](O)[C@H](O)[C@H]4O)c4ccoc4)[C@@]4(O[C@@H]4C(=O)O)[C@]2(C)C(=O)C[C@@H]13 [Limonin glucoside],Tasteless
15,CC1(C)O[C@H]2CC(=O)OC[C@]23[C@H]2CC[C@@]4(C)[C@H](c5ccoc5)OC(=O)[C@H]5O[C@]54[C@]2(C)C(=O)C[C@@H]13 [Limonin],Bitter
16,C[C@@H]1O[C@@H](O[C@H]2[C@H](Oc3cc(O)c4c(c3)O[C@H](c3ccc(O)cc3)CC4=O)O[C@H](CO)[C@@H](O)[C@@H]2O)[C@H](O)[C@H](O)[C@H]1O [Naringin],Bitter
17,COc1ccc(-c2cc(=O)c3c(OC)c(OC)c(OC)c(OC)c3o2)cc1OC [Nobiletin],Bitter
18,CC(=O)O[C@H]1CC(=O)OC(C)(C)[C@@H]2CC(=O)[C@]3(C)[C@H](CC[C@@]4(C)[C@H](c5ccoc5)OC(=O)[C@H]5O[C@]543)[C@@]12C [Nomilin],Bitter
19,C=C[C@H](O)CC(=NOS(=O)(=O)O)S[C@@H]1O[C@H](CO)[C@@H](O)[C@H](O)[C@H]1O [Progoitrin],Bitter
20,O=c1c(O)c(-c2ccc(O)c(O)c2)oc2cc(O)cc(O)c12 [Quercetin],Bitter
21,COc1ccc(-c2cc(=O)c3c(OC)c(OC)c(OC)cc3o2)cc1OC [Sinensetin],Bitter
22,COc1ccc(-c2cc(=O)c3c(OC)c(OC)c(OC)c(OC)c3o2)cc1 [Tangeretin],Bitter
23,O=c1c(-c2ccc(O)cc2)coc2cc(O)ccc12 [daidzein],Bitter or astringent
